Laboratory results: PubChem BioAssay AID328 (DTP/NCI, 2004)
The list does not hold the whole screen: it gathers tests that were run many times, whatever their T/C, doses with no T/C, and many T/C values between a quarter and a half above the control. Further doses and runs are listed elsewhere. T/C is the treated group as % of the vehicle group. Some doses have a count of surviving animals in place of a T/C: the source holds a T/C of zero for them, seemingly a mark for toxic or unscored doses. Some doses without a T/C left all or most animals alive at the check, yet need not have been tolerated: survival well below the control is almost never listed, so the zero probably covers shortened survival too. Survivors were counted at the toxicity check, usually on the fifth day, unless a day is given; later deaths do not show. Schedule codes are those of the source, read here as Q, the interval in days (D) or hours (H), X, the number of doses. Some entries hold several experiments; their values stand side by side, smallest first. For survival time, this PubChem deposit counts one and a half times the control or more as active, and values a quarter to a half above the control carry no call in these data; other NCI protocols may use other cut-offs. Some T/C values carry the count of animals alive at the toxicity check (mostly the fifth day); where none is given, no animal had died by that day.

Test system: BDF1 mice, P388 leukemia ip, median survival T/C
Assay: NCI In Vivo Anticancer Drug Screen. Data for tumor model P388 Leukemia (intraperitoneal) in B6D2F1 (BDF1) mice
Conditions: T/C endpoint: median survival time, higher T/C = longer survival
In short: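 Each value expresses how treatment altered survival: treated-mouse outcome over vehicle-mouse outcome, both groups bearing the transplanted tumour.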

[1] = dose: 25.0 mg/kg/injection, schedule: Q01DX009 (ip), vehicle: saline
[2] = dose: 50.0 mg/kg/injection, schedule: Q01DX009 (ip), vehicle: saline
[3] = dose: 100.0 mg/kg/injection, schedule: Q01DX009 (ip), vehicle: saline
[4] = dose: 200.0 mg/kg/injection, schedule: Q04DX003 (ip), vehicle: Klucel (hydroxypropylcellulose) (HPC)
[5] = dose: 12.5 mg/kg/injection, schedule: Q04DX003 (ip), vehicle: saline with Tween-80
[6] = dose: 50.0 mg/kg/injection, schedule: Q01DX009 (ip), vehicle: saline with Tween-80
[7] = dose: 200.0 mg/kg/injection, schedule: Q01DX009 (ip), vehicle: saline with Tween-80
[8] = dose: 25.0 mg/kg/injection, schedule: Q01DX009 (ip), vehicle: saline with Tween-80
[9] = dose: 100.0 mg/kg/injection, schedule: Q01DX009 (ip), vehicle: saline with Tween-80

What does the source list for `O=CC(=O)c1ccc(O)cc1`?
T/C [1]: 131 % of control; T/C [2]: 136 % of control; T/C (dose: 65.0 mg/kg/injection, schedule: Q01DX006 (ip), vehicle: saline): 126 % of control; T/C (dose: 88.0 mg/kg/injection, schedule: Q04DX003 (ip), vehicle: saline with Tween-80): 127 % of control; T/C (dose: 100.0 mg/kg/injection, schedule: Q01DX006 (ip), vehicle: saline): 144 % of control; T/C [3]: 147 % of control; T/C (dose: 100.0 mg/kg/injection, schedule: Q04DX003 (ip), vehicle: saline sonified): 127 % of control; T/C (dose: 132.0 mg/kg/injection, schedule: Q04DX003 (ip), vehicle: saline sonified): 140 % of control; T/C (dose: 132.0 mg/kg/injection, schedule: Q04DX003 (ip), vehicle: saline with Tween-80): 127 % of control; T/C (dose: 200.0 mg/kg/injection, schedule: Q04DX003 (ip), vehicle: saline sonified): 127 and 136 % of control; T/C (dose: 200.0 mg/kg/injection, schedule: Q04DX003 (ip), vehicle: saline with Tween-80): 136 % of control; survivor count (dose: 300.0 mg/kg/injection, schedule: Q04DX003 (ip), vehicle: saline sonified): 2 of 6

For `CC1CN(Cc2ccccc2)CC(C)N1` (stereo unspecified), which survivor count (dose: 400.0 mg/kg/injection, schedule: Q04DX003 (ip), vehicle: water) is on record?
The survivor count was 0 of 6.

Which survivor count [2] does the source give for `NCCNCC[OH2+].NCCNCC[OH2+].O=S(=O)([O-])[O-].[Cu+2]` here?
Its survivor count is 0 of 6.

What about the survivor count [3] of the same compound?
Its survivor count is 0 of 6.

What about the survivor count (dose: 200.0 mg/kg/injection, schedule: Q01DX009 (ip), vehicle: saline) of the same compound?
The survivor count was 0 of 6.

For `C=C(C)C12OC3(c4ccccc4)OC1C1C4OC4(CO)C(O)C4(O)C(=O)C(C)=CC4C1(O3)C(C)C2O` (stereo unspecified), which survivor count (dose: 100.0 micrograms/kg/injection, schedule: Q01DX009 (ip), vehicle: saline + alcohol) is on record?
Its survivor count is 6 of 6.

And the T/C (dose: 400.0 micrograms/kg/injection, schedule: Q01DX009 (ip), vehicle: saline + alcohol)?
Its T/C is 131 % of control.

With `COC(=O)C12OCC34C(CC5=C(C)C(=O)C(O)=CC5(C)C3C(O)C1O)OC(=O)C(OC(=O)/C=C(\C)C(C)C)C24` (stereo unspecified) as the compound, how does the T/C (dose: 125.0 micrograms/kg/injection, schedule: Q01DX009 (ip), vehicle: saline + alcohol) read?
Its T/C is 135 % of control.

With `O=CC(NC(=O)N(CCCl)N=O)C(O)C(O)C(O)CO` (stereo unspecified) as the compound, how does the T/C (dose: 2.0 mg/kg/injection, schedule: Q01DX009 (ip), vehicle: saline) read?
Its T/C is 146 % of control.

What about the T/C (dose: 3.0 mg/kg/injection, schedule: Q01DX009 (ip), vehicle: saline) of the same compound?
The T/C was 129 % of control.

And the T/C (dose: 4.5 mg/kg/injection, schedule: Q01DX009 (ip), vehicle: saline)?
The T/C was 146 % of control.

What about the survivor count (dose: 30.0 mg/kg/injection, schedule: Q04DX003 (ip), vehicle: saline) of the same compound?
Its survivor count is 8 of 8.

And the survivor count (dose: 45.0 mg/kg/injection, schedule: Q01DX001 (ip), vehicle: saline)?
The survivor count was 6 of 6.

What about the survivor count (dose: 67.0 mg/kg/injection, schedule: Q01DX001 (ip), vehicle: saline) of the same compound?
The survivor count was 9 of 10 and 6 of 6.

Which results are given for `CC(Cl)CN(Cc1cc(O)c(CN(CC(C)Cl)CC(C)Cl)cc1O)CC(C)Cl` (stereo unspecified)?
T/C [4]: 131 % of control; T/C (dose: 400.0 mg/kg/injection, schedule: Q04DX003 (ip), vehicle: Klucel (hydroxypropylcellulose) (HPC)): 137 % of control

With `Cc1c(Cl)cc(Cl)c(N)c1Cl` as the compound, how does the survivor count (dose: 100.0 mg/kg/injection, schedule: Q04DX003 (ip), vehicle: saline with Tween-80) read?
The survivor count was 5 of 6.

Which results are given for `Cc1ccc(S(=O)(=O)N/N=C/C(Br)=C(/Br)C(=O)O)cc1`?
T/C (dose: 25.0 mg/kg/injection, schedule: Q01DX009 (ip), vehicle: Klucel (hydroxypropylcellulose) (HPC)): 137 % of control; survivor count (dose: 200.0 mg/kg/injection, schedule: Q01DX009 (ip), vehicle: Klucel (hydroxypropylcellulose) (HPC)): 4 of 6

What does the source list for `Cc1cc(C(C(N)=O)c2ccccc2)ccc1N(CCCl)CCCl` (stereo unspecified)?
T/C (dose: 0.51 mg/kg/injection, schedule: Q01DX009 (ip), vehicle: Klucel (hydroxypropylcellulose) (HPC)): 130 % of control; T/C (dose: 1.17 mg/kg/injection, schedule: Q01DX009 (ip), vehicle: Klucel (hydroxypropylcellulose) (HPC)): 140 % of control; T/C (dose: 9.0 mg/kg/injection, schedule: Q04DX003 (ip), vehicle: saline): 136 % of control; T/C (dose: 18.75 mg/kg/injection, schedule: Q01DX009 (ip), vehicle: Klucel (hydroxypropylcellulose) (HPC)): 130 % of control; survivor count (dose: 28.12 mg/kg/injection, schedule: Q01DX009 (ip), vehicle: Klucel (hydroxypropylcellulose) (HPC)): 6 of 6

With `CC1(O)C=CC(=O)C=C1` as the compound, how does the T/C (dose: 12.5 mg/kg/injection, schedule: Q01DX009 (ip), vehicle: water) read?
The T/C was 125 % of control.

And the survivor count (dose: 100.0 mg/kg/injection, schedule: Q01DX009 (ip), vehicle: water)?
Its survivor count is 0 of 5.

`CCCCc1c(C(=O)OCC)oc(C(=O)OCC)c(CCCC)c1=O` was tested. Which T/C [4] did it give?
The T/C was 129 % of control.

With `CC(=O)OCc1c(O)c2c(c(O)c1COC(C)=O)C(=O)C=CC2=O` as the compound, how does the survivor count [2] read?
The survivor count was 5 of 6.

How did the survivor count [5] turn out when `CCCCC(I)C(C)(C)[n+]1ccccc1` (stereo unspecified) was run?
Its survivor count is 6 of 6.

And the survivor count [6]?
The survivor count was 5 of 6.

How did the T/C (dose: 265.0 mg/kg/injection, schedule: Q01DX009 (ip), vehicle: saline) turn out when `Cc1ccc(C2NC(=S)N3C(c4ccc(C)cc4)NC(=S)N23)cc1` (stereo unspecified) was run?
Its T/C is 129 % of control.

How did the T/C [5] turn out when `FC(F)(F)c1ccc2c(c1)N(CCCN(CCCl)CCCl)c1ccccc1S2` was run?
Its T/C is 128 % of control [5 of 6 alive].

How did the T/C [6] turn out when `CCOC(=O)Sc1ncnc2nc[nH]c12` was run?
Its T/C is 136 % of control [5 of 6 alive].

How did the survivor count (dose: 100.0 mg/kg/injection, schedule: Q01DX001 (ip), vehicle: saline sonified) turn out when `N#CCC(=O)Cc1ccccc1[N+](=O)[O-]` was run?
The survivor count was 6 of 6.

What about the survivor count (dose: 200.0 mg/kg/injection, schedule: Q01DX001 (ip), vehicle: saline sonified) of the same compound?
The survivor count was 6 of 6.

Which results are given for `CCOC(=O)C(C(=O)OCC)=C(C)OCC`?
survivor count [7]: 5 of 6; survivor count (dose: 400.0 mg/kg/injection, schedule: Q04DX003 (ip), vehicle: saline with Tween-80): 3 of 6

What does the source list for `CC(C)(C)c1cc(CO)c(Sc2c(CO)cc(C(C)(C)C)cc2CO)c(CO)c1`?
survivor count (dose: 100.0 mg/kg/injection, schedule: Q01DX001 (ip), vehicle: saline with Tween-80): 6 of 6; survivor count (dose: 200.0 mg/kg/injection, schedule: Q01DX001 (ip), vehicle: saline with Tween-80): 6 of 6

For `Clc1[nH]nc2ccccc12`, which survivor count [8] is on record?
Its survivor count is 6 of 6.

What about the survivor count [6] of the same compound?
The survivor count was 6 of 6.

For `CC1=C(/C=C/C(C)=C/C=C/C(C)=C/C(=O)O)C(C)(C)CCC1`, which survivor count [6] is on record?
The survivor count was 6 of 6.

What about the survivor count [9] of the same compound?
Its survivor count is 6 of 6.

What about the survivor count [7] of the same compound?
The survivor count was 6 of 6.

`CCCCOCN1COCC1(C)C` was tested. Which T/C (dose: 200.0 mg/kg/injection, schedule: Q04DX003 (ip), vehicle: saline) did it give?
Its T/C is 140 % of control.

Which survivor count (dose: 75.0 mg/kg/injection, schedule: Q01DX009 (ip), vehicle: other) does the source give for `[C-]#[N+]C(=C\c1ccc(O)cc1)/C(=C/c1ccc(O)cc1)[N+]#[C-]` here?
The survivor count was 0 of 6.

And the survivor count (dose: 150.0 mg/kg/injection, schedule: Q01DX009 (ip), vehicle: other)?
The survivor count was 0 of 6.

What about the survivor count (dose: 300.0 mg/kg/injection, schedule: Q01DX009 (ip), vehicle: other) of the same compound?
Its survivor count is 0 of 6.

For `COC(=O)c1[nH]cnc1/N=N\N(CCF)CCF`, which T/C (dose: 13.0 mg/kg/injection, schedule: Q04DX003 (ip), vehicle: saline with Tween-80) is on record?
The T/C was 127 % of control.

And the T/C (dose: 20.0 mg/kg/injection, schedule: Q04DX003 (ip), vehicle: saline with Tween-80)?
The T/C was 131 % of control.

What about the survivor count [8] of the same compound?
Its survivor count is 3 of 6.

What about the T/C (dose: 30.0 mg/kg/injection, schedule: Q04DX003 (ip), vehicle: saline with Tween-80) of the same compound?
The T/C was 140 % of control.

And the T/C (dose: 44.0 mg/kg/injection, schedule: Q04DX003 (ip), vehicle: saline with Tween-80)?
Its T/C is 145 % of control.

And the survivor count [6]?
The survivor count was 4 of 6.

And the survivor count [9]?
Its survivor count is 4 of 6.

What about the survivor count (dose: 150.0 mg/kg/injection, schedule: Q04DX003 (ip), vehicle: saline with Tween-80) of the same compound?
The survivor count was 5 of 6.

`CCCCCCCCNC(=O)C1OC(n2cnc3c(N)ncnc32)C(O)C1O` (stereo unspecified) was tested. Which survivor count (dose: 400.0 mg/kg/injection, schedule: Q01DX009 (ip), vehicle: saline) did it give?
The survivor count was 2 of 6.

`COC(=O)c1cc(=O)nc(N/N=C/c2ccc3c(c2)OCO3)s1` was tested. Which survivor count (dose: 100.0 mg/kg/injection, schedule: Q01DX005 (ip), vehicle: saline with Tween-80) did it give?
Its survivor count is 5 of 5.

With `S=c1cc(-c2cccs2)ss1` as the compound, how does the T/C [1] read?
Its T/C is 142 % of control.

`COc1ccc2nc(C)c(COC(C)=O)c(Cl)c2c1` was tested. Which survivor count [3] did it give?
Its survivor count is 6 of 6.
